In the supplement of paper PMC8326762, “A Small Molecule Inhibitor of Pex3–Pex19 Interaction Disrupts Glycosome Biogenesis and Causes Lethality in Trypanosoma brucei” (Frontiers in Cell and Developmental Biology, 2021):
Where a name gives a salt, the structure may show the parent alone. Some of the results follow. This is a noisy data set.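 Yeast growth was measured as optical density at 600 nm. Two-hybrid strains grew without histidine, so growth depended on Pex3–Pex19 binding. A compound was trypanosome-selective if it reduced growth of the trypanosome-pair strain by over 65% and of the human-pair strain by under 65%.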

What follows are molecules tested on human PEX3-PEX19 interaction (yeast two-hybrid) (assay: growth inhibition of yeast two-hybrid strain reporting HsPex3-HsPex19 interaction, relative to DMSO; higher = stronger inhibition of human Pex3-Pex19 interaction / growth). Conditions: 100 µM; 24 h; 3-aminotriazole 10 mM.

SMILES | growth inhibition
CN=c1nc(-c2ccccc2)n(-c2ccccc2)s1 | 53.7%
CN1CCC(=C2c3ccccc3C=Cc3ccccc32)CC1 [Cyproheptadine hydrochloride] | 38%
C=C[C@H]1CN2CC[C@H]1C[C@H]2[C@H](O)c1ccnc2ccc(OC)cc12 [Quinine sulfate] | 42.6%
O=C1CCC(N2C(=O)c3ccccc3C2=O)C(=O)N1 (racemic) [(±)-Thalidomide] | 50.2%
CN1CCc2cccc3c2[C@H]1Cc1ccc(O)c(O)c1-3 [Apomorphine hydrochloride hemihydrate] | 23.9%
C1COC(NC(C2CC2)C2CC2)=N1 [Rilmenidine hemifumarate] | 46.1%
CN(C)CCCN1c2ccccc2CCc2ccc(Cl)cc21 [Clomipramine hydrochloride] | 29.1%
C[C@](N)(Cc1ccc(O)cc1)C(=O)O [L-alpha-Methyl-p-tyrosine] | 36.9%
COc1ccccc1N1CCN(CCCCN2C(=O)c3ccccc3C2=O)CC1 [NAN-190 hydrobromide] | 9.85%
Fc1ccc(C(c2ccc(F)cc2)N2CCN(C/C=C/c3ccccc3)CC2)cc1 [Flunarizine dihydrochloride] | 84.8%
CC1(C)NC(=O)N(c2ccc([N+](=O)[O-])c(C(F)(F)F)c2)C1=O [Nilutamide] | -0.794%
Oc1cc2c(cc1O)CN(C(=S)NCCc1ccc(Cl)cc1)CCC2 [Capsazepine] | 30.2%
CN1CCC[C@@H]1CCO[C@](C)(c1ccccc1)c1ccc(Cl)cc1 [Clemastine fumarate] | 40%

2 of these compounds, set out differently:
COc1ccccc1N1CCN(CCCCN2C(=O)c3ccccc3C2=O)CC1 [NAN-190 hydrobromide]
  growth inhibition: 9.85%
CC1(C)NC(=O)N(c2ccc([N+](=O)[O-])c(C(F)(F)F)c2)C1=O [Nilutamide]
  growth inhibition: -0.794%
